According to PubChem BioAssay AID270 (DTP/NCI, 2004):
The list shows only some results of the screen, not a fair sample: it is rich in T/C values a quarter to a half above the control, in often repeated tests (any T/C) and in doses without a T/C. Other doses and runs of a compound stand elsewhere. T/C: endpoint of the treated group in % of that of the vehicle group. Schedule codes are those of the source, read here as Q, the interval in days (D) or hours (H), X, the number of doses. Some T/C values are followed by the survivors on the day toxicity was checked, most often the fifth; without a count, all were alive then. Some doses have a count of surviving animals in place of a T/C: the source files T/C as zero there, which appears to mark a toxic dose or a test without result, not a measured value. Some doses without a T/C left all or most animals alive at the check, yet need not have been tolerated: survival well below the control is almost never listed, so the zero probably covers shortened survival too. Counts of survivors are from the toxicity check (mostly the fifth day) where no day follows; animals may have died later. Some entries were tested several times; the results are listed from low to high. For survival time, this PubChem deposit counts one and a half times the control or more as active, and values a quarter to a half above the control carry no call in these data; other NCI protocols may use other cut-offs.

System: BDF1 mice, s.c. Lewis lung carcinoma, T/C %
Test: NCI In Vivo Anticancer Drug Screen. Data for tumor model Lewis Lung Carcinoma (subcutaneous) in B6D2F1 (BDF1) mice
How it was run: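 Antitumor effect in vivo is scored from survival or tumor burden, reported as treated relative to vehicle controls.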

[1] = T/C endpoint: mean tumor weight, dose: 480.0 mg/kg/injection, schedule: Q01DX011 (ip), vehicle: other, higher T/C = larger tumour
[2] = T/C endpoint: median survival time, dose: 75.0 mg/kg/injection, schedule: Q01DX009 (ip), vehicle: saline with Tween-80, higher T/C = longer survival

CCCCn1cnc2c(SC)nc(N)nc21
survivor count [1]: 0 of 6 | survivor count (T/C endpoint: mean tumor weight, dose: 720.0 mg/kg/injection, schedule: Q01DX011 (ip), vehicle: other, higher T/C = larger tumour): 1 of 6

CC/C(C)=C1\OC(=O)C(C)C(O)C(Cc2cccnc2)NC(=O)C(NC(=O)c2ncccc2O)C(C)OC1=O (stereo unspecified)
survivor count (T/C endpoint: median survival time, dose: 25.0 mg/kg/injection, schedule: Q01DX009 (ip), vehicle: saline with Tween-80, higher T/C = longer survival): 10 of 10

O=C(Nc1ccc2c(c1)Cc1cccc(NC(=O)C(Cl)Cl)c1-2)C(Cl)Cl
survivor count (T/C endpoint: mean tumor weight, dose: 90.0 mg/kg/injection, schedule: Q01DX011 (ip), vehicle: carboxymethylcellulose (CMC), higher T/C = larger tumour): 1 of 6 | survivor count (T/C endpoint: mean tumor weight, dose: 180.0 mg/kg/injection, schedule: Q01DX011 (ip), vehicle: carboxymethylcellulose (CMC), higher T/C = larger tumour): 1 of 6 and 2 of 6 | survivor count (T/C endpoint: mean tumor weight, dose: 270.0 mg/kg/injection, schedule: Q01DX011 (ip), vehicle: carboxymethylcellulose (CMC), higher T/C = larger tumour): 3 of 6 | T/C (T/C endpoint: mean tumor weight, dose: 400.0 mg/kg/injection, schedule: Q01DX011 (ip), vehicle: carboxymethylcellulose (CMC), evaluated on day 12, higher T/C = larger tumour): 135 % of control [4 of 6 alive] | survivor count (T/C endpoint: mean tumor weight, dose: 400.0 mg/kg/injection, schedule: Q01DX011 (ip), vehicle: carboxymethylcellulose (CMC), higher T/C = larger tumour): 2 of 6

ClCCn1cnc2c(SCc3ccccc3Cl)ncnc21
survivor count [1]: 0 of 6

CN1CCCC1c1cccnc1 (stereo unspecified)
survivor count (T/C endpoint: mean tumor weight, dose: 8.0 mg/kg/injection, schedule: Q01DX011 (ip), vehicle: carboxymethylcellulose (CMC), higher T/C = larger tumour): 3 of 6

CCOC(=O)c1c[nH]c2c(Cl)c(C)ccc2c1=O
T/C (T/C endpoint: mean tumor weight, dose: 233.0 mg/kg/injection, schedule: Q01DX011 (ip), vehicle: other, evaluated on day 12, higher T/C = larger tumour): 127 % of control

Oc1ccccc1/C=N/NC(=S)NC1CC2C=CC1C2 (stereo unspecified)
survivor count (T/C endpoint: median survival time, dose: 25.0 mg/kg/injection, schedule: Q01DX009 (ip), vehicle: olive oil, sesame oil, peanut oil, higher T/C = longer survival): 10 of 10 | survivor count (T/C endpoint: median survival time, dose: 50.0 mg/kg/injection, schedule: Q01DX009 (ip), vehicle: olive oil, sesame oil, peanut oil, higher T/C = longer survival): 10 of 10 | survivor count (T/C endpoint: median survival time, dose: 400.0 mg/kg/injection, schedule: Q01DX009 (ip), vehicle: olive oil, sesame oil, peanut oil, higher T/C = longer survival): 10 of 10

CC1=CC2=C(C=O)C(=O)[C@](C)(O)[C@@H](O)C2=CO1
survivor count (T/C endpoint: median survival time, dose: 12.5 mg/kg/injection, schedule: Q01DX009 (ip), vehicle: saline with Tween-80, higher T/C = longer survival): 9 of 10 | survivor count (T/C endpoint: median survival time, dose: 50.0 mg/kg/injection, schedule: Q01DX009 (ip), vehicle: saline with Tween-80, higher T/C = longer survival): 10 of 10 | survivor count (T/C endpoint: median survival time, dose: 100.0 mg/kg/injection, schedule: Q01DX009 (ip), vehicle: saline with Tween-80, higher T/C = longer survival): 9 of 10

NC(=S)N/N=C/c1cc(-c2cccc(N)c2)ccn1
T/C (T/C endpoint: median survival time, dose: 6.25 mg/kg/injection, schedule: Q01DX009 (ip), vehicle: saline with Tween-80, higher T/C = longer survival): 132 % of control | T/C [2]: 132 % of control | survivor count [2]: 10 of 10

CC1(C)OCC(CO)(Nc2nc(N3CC3)nc(N3CC3)n2)CO1
survivor count (T/C endpoint: median survival time, dose: 2.5 mg/kg/injection, schedule: Q01DX009 (ip), vehicle: saline, higher T/C = longer survival): 10 of 10 | survivor count (T/C endpoint: median survival time, dose: 5.0 mg/kg/injection, schedule: Q01DX009 (ip), vehicle: saline, higher T/C = longer survival): 10 of 10

CCOc1ccc(Nc2ncnc3nc[nH]c23)cc1CN(CCCl)CCCl
survivor count (T/C endpoint: mean tumor weight, dose: 4.5 mg/kg/injection, schedule: Q01DX011 (ip), vehicle: other, higher T/C = larger tumour): 0 of 6 | survivor count (T/C endpoint: mean tumor weight, dose: 9.0 mg/kg/injection, schedule: Q01DX011 (ip), vehicle: other, higher T/C = larger tumour): 0 of 6

CC/C(=C(\CC)c1ccc(OC)cc1)c1ccc(O)cc1
survivor count (T/C endpoint: mean tumor weight, dose: 480.0 mg/kg/injection, schedule: Q01DX011 (sc), vehicle: steroid suspending solution, higher T/C = larger tumour): 1 of 6

NCCc1ccc(O)c(O)c1
survivor count (T/C endpoint: median survival time, dose: 300.0 mg/kg/injection, schedule: Q01DX009 (ip), vehicle: saline, higher T/C = longer survival): 10 of 10

O=C(O)CCCc1ccc(N(CCCl)CCCl)cc1
survivor count (T/C endpoint: mean tumor weight, dose: 15.0 mg/kg/injection, schedule: Q01DX011 (ip), vehicle: carboxymethylcellulose (CMC), higher T/C = larger tumour): 4 of 10 | survivor count (T/C endpoint: mean tumor weight, dose: 25.0 mg/kg/injection, schedule: Q01DX011 (ip), vehicle: saline, higher T/C = larger tumour): 0 of 6 | T/C (T/C endpoint: median survival time, dose: 4.0 mg/kg/injection, schedule: Q04DX003 (ip), vehicle: saline with Tween-80, higher T/C = longer survival): 126 % of control | T/C (T/C endpoint: median survival time, dose: 8.0 mg/kg/injection, schedule: Q04DX003 (ip), vehicle: saline with Tween-80, higher T/C = longer survival): 139 % of control | survivor count (T/C endpoint: median survival time, dose: 16.0 mg/kg/injection, schedule: Q01DX009 (ip), vehicle: saline with Tween-80, higher T/C = longer survival): 9 of 10 and 10 of 10 | T/C (T/C endpoint: median survival time, dose: 16.0 mg/kg/injection, schedule: Q04DX003 (ip), vehicle: saline with Tween-80, higher T/C = longer survival): 133 % of control | survivor count (T/C endpoint: median survival time, dose: 32.0 mg/kg/injection, schedule: Q01DX009 (ip), vehicle: saline with Tween-80, higher T/C = longer survival): 1 of 10 | survivor count (T/C endpoint: median survival time, dose: 32.0 mg/kg/injection, schedule: Q04DX003 (ip), vehicle: saline with Tween-80, higher T/C = longer survival): 8 of 10 | survivor count (T/C endpoint: median survival time, dose: 64.0 mg/kg/injection, schedule: Q01DX001 (ip), vehicle: saline with Tween-80, higher T/C = longer survival): 4 of 10 | survivor count (T/C endpoint: median survival time, dose: 64.0 mg/kg/injection, schedule: Q04DX003 (ip), vehicle: saline with Tween-80, higher T/C = longer survival): 5 of 10
